Measurements taken from the supplement of paper PMC10849652.
This is one part of the list.

Chains of the proteins cited; added tags and fusions are not shown. Lines headed by an entry give the natural chain unless they say otherwise; changes in a name come on top.
UniProt P09497: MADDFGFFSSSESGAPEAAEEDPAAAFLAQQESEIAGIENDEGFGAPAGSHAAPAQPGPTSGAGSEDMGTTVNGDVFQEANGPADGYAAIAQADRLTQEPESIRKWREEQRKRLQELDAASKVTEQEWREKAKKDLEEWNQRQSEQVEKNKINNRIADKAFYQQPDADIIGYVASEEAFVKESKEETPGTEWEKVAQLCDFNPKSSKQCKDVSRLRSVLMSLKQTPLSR
UniProt Q9NZZ3: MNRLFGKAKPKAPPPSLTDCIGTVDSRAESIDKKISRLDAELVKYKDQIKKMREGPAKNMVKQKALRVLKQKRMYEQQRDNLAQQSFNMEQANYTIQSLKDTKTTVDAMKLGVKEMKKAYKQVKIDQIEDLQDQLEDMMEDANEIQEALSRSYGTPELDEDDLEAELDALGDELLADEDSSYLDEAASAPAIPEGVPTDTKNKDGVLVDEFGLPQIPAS
UniProt Q00610: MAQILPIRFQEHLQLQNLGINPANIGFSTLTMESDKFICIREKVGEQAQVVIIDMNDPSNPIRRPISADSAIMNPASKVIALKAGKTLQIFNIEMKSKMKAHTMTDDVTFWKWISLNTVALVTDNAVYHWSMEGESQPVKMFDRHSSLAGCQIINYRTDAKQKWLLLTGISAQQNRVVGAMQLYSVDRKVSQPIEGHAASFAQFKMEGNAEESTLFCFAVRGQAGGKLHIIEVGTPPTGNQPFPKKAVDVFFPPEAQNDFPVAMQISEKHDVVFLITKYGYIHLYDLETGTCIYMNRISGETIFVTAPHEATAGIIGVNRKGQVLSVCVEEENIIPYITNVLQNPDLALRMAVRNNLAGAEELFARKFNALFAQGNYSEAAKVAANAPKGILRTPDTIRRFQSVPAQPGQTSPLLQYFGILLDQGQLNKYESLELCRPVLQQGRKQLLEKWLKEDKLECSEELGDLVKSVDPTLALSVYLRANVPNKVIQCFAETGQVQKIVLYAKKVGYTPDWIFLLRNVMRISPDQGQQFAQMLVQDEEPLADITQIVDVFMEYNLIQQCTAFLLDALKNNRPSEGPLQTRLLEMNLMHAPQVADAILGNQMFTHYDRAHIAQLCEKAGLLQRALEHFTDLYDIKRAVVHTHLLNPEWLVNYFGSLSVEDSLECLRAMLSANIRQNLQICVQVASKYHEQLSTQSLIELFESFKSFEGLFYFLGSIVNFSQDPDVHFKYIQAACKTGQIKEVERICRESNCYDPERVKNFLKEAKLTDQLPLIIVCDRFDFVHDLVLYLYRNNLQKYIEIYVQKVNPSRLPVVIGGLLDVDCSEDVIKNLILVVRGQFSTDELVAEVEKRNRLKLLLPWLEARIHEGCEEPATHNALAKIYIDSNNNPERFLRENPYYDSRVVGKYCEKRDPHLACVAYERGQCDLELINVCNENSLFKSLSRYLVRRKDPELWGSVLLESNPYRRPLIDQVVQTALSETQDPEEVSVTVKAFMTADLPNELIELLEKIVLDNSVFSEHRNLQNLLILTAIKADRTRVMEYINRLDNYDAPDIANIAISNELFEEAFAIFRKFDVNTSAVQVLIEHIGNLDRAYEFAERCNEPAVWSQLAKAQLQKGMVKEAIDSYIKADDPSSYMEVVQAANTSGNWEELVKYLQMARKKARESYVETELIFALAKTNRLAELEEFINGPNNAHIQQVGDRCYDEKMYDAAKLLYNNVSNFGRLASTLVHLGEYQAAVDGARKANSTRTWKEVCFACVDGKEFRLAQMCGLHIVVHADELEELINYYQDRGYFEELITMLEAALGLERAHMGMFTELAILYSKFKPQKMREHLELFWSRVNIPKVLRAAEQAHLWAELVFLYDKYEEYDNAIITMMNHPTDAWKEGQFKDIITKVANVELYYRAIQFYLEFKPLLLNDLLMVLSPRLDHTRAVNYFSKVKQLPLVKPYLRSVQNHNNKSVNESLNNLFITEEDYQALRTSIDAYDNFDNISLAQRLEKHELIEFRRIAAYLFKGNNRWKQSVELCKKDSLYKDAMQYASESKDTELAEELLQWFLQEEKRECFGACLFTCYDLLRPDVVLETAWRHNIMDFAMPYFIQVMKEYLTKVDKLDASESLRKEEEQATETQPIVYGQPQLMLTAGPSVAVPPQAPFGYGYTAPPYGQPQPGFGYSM
UniProt O75122: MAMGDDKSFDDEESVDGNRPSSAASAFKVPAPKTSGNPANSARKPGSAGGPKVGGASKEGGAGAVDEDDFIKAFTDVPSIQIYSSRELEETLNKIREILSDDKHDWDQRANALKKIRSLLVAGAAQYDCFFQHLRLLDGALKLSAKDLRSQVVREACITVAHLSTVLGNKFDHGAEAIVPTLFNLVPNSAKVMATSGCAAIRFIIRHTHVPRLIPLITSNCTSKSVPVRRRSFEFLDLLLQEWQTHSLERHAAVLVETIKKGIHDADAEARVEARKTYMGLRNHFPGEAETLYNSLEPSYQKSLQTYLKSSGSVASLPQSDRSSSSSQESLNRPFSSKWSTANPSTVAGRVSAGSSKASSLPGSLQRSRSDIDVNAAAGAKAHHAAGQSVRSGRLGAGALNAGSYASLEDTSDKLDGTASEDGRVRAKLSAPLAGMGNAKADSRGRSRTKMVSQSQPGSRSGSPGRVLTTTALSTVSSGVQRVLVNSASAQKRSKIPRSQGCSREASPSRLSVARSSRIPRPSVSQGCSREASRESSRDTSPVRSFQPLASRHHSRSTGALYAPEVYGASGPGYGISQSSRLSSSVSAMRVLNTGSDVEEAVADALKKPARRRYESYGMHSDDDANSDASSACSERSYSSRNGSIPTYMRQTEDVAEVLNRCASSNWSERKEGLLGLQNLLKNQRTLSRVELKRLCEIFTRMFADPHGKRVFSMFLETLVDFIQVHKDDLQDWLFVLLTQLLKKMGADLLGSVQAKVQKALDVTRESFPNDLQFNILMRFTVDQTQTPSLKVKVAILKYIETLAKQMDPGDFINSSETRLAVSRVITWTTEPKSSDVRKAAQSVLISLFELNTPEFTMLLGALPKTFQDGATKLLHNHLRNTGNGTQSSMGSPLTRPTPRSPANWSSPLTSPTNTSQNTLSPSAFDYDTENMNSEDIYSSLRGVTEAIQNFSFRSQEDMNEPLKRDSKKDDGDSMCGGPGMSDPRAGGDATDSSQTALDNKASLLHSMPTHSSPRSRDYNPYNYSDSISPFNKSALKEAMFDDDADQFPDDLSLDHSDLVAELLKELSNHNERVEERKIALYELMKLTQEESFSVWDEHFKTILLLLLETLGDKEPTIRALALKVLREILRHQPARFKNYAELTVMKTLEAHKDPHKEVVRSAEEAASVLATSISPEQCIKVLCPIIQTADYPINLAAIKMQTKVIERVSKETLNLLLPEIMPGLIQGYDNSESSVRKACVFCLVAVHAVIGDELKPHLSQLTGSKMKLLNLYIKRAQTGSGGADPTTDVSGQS
UniProt Q8N2M8: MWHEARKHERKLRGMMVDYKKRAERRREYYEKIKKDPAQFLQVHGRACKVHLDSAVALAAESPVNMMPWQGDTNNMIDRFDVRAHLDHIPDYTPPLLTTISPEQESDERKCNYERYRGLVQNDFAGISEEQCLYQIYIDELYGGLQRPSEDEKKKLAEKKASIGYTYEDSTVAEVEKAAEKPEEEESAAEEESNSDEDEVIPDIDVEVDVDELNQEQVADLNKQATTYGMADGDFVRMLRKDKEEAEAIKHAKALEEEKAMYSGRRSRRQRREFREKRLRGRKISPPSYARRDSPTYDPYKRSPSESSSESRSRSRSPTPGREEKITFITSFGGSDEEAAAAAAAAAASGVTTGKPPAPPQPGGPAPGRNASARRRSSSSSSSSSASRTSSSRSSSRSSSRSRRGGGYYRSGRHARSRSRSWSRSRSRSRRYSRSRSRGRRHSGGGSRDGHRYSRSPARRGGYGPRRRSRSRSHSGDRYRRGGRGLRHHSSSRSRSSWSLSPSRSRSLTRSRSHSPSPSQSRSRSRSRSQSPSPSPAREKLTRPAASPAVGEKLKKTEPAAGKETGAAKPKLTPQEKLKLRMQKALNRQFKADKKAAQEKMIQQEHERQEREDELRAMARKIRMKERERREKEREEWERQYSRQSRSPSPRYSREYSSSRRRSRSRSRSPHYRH
UniProt O96005: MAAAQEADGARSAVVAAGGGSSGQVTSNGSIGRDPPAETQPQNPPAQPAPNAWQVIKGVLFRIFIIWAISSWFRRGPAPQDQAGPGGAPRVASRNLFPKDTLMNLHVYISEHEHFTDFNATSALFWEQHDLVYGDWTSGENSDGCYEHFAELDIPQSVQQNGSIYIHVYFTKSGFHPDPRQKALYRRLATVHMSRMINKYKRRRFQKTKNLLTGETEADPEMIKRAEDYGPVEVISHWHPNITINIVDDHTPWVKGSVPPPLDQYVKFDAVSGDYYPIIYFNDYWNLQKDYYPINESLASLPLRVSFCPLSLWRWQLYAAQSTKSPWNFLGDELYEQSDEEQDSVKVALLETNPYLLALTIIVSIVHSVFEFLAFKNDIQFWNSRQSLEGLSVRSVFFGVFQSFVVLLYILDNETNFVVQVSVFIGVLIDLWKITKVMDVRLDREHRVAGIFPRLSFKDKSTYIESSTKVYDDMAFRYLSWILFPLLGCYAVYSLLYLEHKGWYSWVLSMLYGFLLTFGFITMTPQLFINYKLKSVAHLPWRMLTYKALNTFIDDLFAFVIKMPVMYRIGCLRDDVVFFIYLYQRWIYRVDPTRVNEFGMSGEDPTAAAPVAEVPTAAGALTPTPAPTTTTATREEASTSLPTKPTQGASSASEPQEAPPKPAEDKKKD
UniProt P51798: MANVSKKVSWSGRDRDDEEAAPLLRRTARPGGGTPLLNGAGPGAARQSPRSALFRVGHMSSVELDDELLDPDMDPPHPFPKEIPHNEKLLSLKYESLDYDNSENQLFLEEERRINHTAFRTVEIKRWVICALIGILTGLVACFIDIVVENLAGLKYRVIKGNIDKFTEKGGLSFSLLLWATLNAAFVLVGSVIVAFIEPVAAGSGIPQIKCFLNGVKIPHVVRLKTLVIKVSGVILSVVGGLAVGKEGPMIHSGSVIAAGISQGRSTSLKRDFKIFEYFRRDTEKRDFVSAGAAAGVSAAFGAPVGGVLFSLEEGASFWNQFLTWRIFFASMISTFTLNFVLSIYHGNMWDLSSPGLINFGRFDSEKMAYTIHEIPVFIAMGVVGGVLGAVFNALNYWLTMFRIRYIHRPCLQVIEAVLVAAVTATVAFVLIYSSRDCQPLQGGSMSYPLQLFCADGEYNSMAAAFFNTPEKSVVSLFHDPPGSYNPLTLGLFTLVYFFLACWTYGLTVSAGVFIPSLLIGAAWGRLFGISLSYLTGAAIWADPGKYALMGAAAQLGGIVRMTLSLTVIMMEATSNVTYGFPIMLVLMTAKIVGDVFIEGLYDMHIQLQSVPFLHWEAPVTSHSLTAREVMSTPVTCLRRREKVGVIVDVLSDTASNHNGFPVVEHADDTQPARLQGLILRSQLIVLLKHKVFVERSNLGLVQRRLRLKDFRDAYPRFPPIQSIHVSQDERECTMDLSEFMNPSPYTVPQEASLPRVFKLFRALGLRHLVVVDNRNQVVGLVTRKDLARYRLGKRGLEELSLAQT
UniProt Q96S66: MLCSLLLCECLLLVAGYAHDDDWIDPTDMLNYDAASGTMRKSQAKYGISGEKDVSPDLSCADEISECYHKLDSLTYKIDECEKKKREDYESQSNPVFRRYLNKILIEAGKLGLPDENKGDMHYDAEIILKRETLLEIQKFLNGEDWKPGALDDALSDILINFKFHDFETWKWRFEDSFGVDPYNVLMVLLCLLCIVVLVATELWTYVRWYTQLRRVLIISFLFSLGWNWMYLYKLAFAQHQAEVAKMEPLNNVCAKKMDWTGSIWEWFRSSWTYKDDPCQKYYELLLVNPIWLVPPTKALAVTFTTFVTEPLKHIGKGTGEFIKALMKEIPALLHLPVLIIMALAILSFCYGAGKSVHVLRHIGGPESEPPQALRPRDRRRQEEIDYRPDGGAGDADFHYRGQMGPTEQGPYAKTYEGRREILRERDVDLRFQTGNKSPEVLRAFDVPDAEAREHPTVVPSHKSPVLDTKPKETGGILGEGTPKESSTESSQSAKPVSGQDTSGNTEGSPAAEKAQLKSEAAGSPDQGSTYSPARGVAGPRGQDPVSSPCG
UniProt Q9UKJ5: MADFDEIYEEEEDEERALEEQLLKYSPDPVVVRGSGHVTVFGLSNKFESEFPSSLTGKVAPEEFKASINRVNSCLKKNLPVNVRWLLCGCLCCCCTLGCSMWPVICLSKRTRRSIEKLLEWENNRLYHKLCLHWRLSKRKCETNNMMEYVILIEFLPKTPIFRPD
UniProt Q9BRQ6: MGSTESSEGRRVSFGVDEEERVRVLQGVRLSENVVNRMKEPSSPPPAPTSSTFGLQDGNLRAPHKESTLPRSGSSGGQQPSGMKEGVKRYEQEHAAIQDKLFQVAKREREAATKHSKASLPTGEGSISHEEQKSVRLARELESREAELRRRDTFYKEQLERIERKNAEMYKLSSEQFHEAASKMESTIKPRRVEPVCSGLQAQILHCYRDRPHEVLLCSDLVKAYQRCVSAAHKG

Key:
Assay in all cases: log2 fold change, soluble protein after heating vs DMSO (PISA); higher = thermal stabilisation; K562 lysate, 10 uM; active = over 0.2 and 3.5 SD of the protein, either way, in both replicates (recomputed)
erlotinib = compound: C#Cc1cccc(Nc2ncnc3cc(OCCOC)c(OCCOC)cc23)c1 [erlotinib]
Procedure, shortened: (§1)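 Following dounce homogenisation of K562 pellets in PBS pH 7.4 with 1 mM MgCl2, crude extract at 1 mg/mL protein was incubated for 30 min with 10 μM compound. Aliquots were then heated for 3 min over 48°C-58°C and pooled, NP-40 was added to 0.5% at 4°C, and soluble protein was recovered as the supernatant at 21,000xg for 90 min. Channel-sum-equalised TMTpro 16plex LC-MS/MS quantified this protein. Each value, from duplicates, is a log-two fold change in thermal stability relative to solvent controls.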

[1] = compound: C/C(=N\NC(=O)C1=CC(=CC=C1)S(=O)(=O)N2CCOCC2)/C3=C(C=CC(=C3)Cl)O
Procedure, shortened: as §1

[2] = compound: C1=CC(=CC=C1C2=NC3=C(N2)C=C(C=C3)C(=O)N)OC4=CC=C(C=C4)Cl
Procedure, shortened: as §1

[3] = compound: C1=CC2=C(C=CC(=C2)/C=C\3/C(=O)NC(=NCC4=CC=CS4)S3)N=C1
Procedure, shortened: as §1

[4] = compound: C1=CC2=NC=CN=C2C=C1/C=C/3\C(=O)NC(=O)S3
Procedure, shortened: as §1

[5] = compound: C1=CC=C(C=C1)C2=NC(=C(N2)C3=CC=NC=C3)C4=CC(=C(C=C4)Cl)O
Procedure, shortened: as §1

[6] = compound: C1=CC=C2C(=C1)C3=NNC4=CC=CC(=C43)C2=O
Procedure, shortened: as §1

[7] = compound: C1CCN(C1)C(=O)NC2=CC=CC(=C2)NC3=NC=C(C(=N3)NCCC4=CN=CN4)Br
Procedure, shortened: as §1

[8] = compound: C1CN(CCC1(CC2=CC=C(C=C2)Cl)N)C3=NC=NC4=C3C=CN4
Procedure, shortened: as §1

IRAK-1-4 Inhibitor I = compound: C1COCCN1CCN2C3=CC=CC=C3N=C2NC(=O)C4=CC(=CC=C4)[N+](=O)[O-] [IRAK-1-4 Inhibitor I]
Procedure, shortened: as §1

ibrutinib = compound: C=CC(=O)N1CCC[C@@H](n2nc(-c3ccc(Oc4ccccc4)cc3)c3c(N)ncnc32)C1 [ibrutinib]
Procedure, shortened: as §1

ralimetinib = compound: CC(C)(C)Cn1c(N)nc2ccc(-c3[nH]c(C(C)(C)C)nc3-c3ccc(F)cc3)nc21 [ralimetinib]
Procedure, shortened: as §1

[9] = compound: CC(C)(O)CC(=O)NCCn1ccc2ncnc(Nc3ccc(Oc4cccc(C(F)(F)F)c4)c(Cl)c3)c21
Procedure, shortened: as §1

[10] = compound: CC(C)C1=C2N=C(C=C(N2N=C1)NCC3=CC=CC=C3)NCCCCCCN
Procedure, shortened: as §1

[11] = compound: CC1=C(C(CC(=O)N1)C2=CC=C(C=C2)C(F)(F)F)C(=O)NC3=C(C=C4C(=C3)C=NN4)F
Procedure, shortened: as §1

[12] = compound: CC1=C(C2=C(C=C1)C(=O)C3=CC=CC=C3N2CCCN)C
Procedure, shortened: as §1

[13] = compound: CC1=C(C=C(C=C1)NC(=O)C2=CC(=CC=C2)C(C)(C)C#N)NC3=CC4=C(C=C3)N=CN(C4=O)C
Procedure, shortened: as §1

[14] = compound: CC1=C(C=C(C=C1)NC(=O)C2=CC(=CC=C2)N(C)C)NC(=O)C3=CC=C(C=C3)O
Procedure, shortened: as §1

[15] = compound: CC(=O)c1cnc2ccc(-c3cc(Cl)c(O)c(Cl)c3)nc2c1N[C@H]1CC[C@H](CN(C)C)CC1
Procedure, shortened: as §1

[16] = compound: CC1=CC=C(C=C1)SC2=C3C=C(SC3=CN=C2)C(=O)N
Procedure, shortened: as §1

Measured: log2 fold change

CHST11 (UniProt Q9NPF2)
inactive: erlotinib 0.033 | [1] 0.007 | [2] -0.029 | [3] -0.156 | [4] 0.057 | [5] -0.057 | [6] 0.006 | [7] -0.096 | [8] 0.083 | IRAK-1-4 Inhibitor I 0.002 | ibrutinib 0.125 | ralimetinib -0.02 | [9] 0.008 | [10] -0.012 | [11] -0.061 | [12] 0 | [13] 0.056 | [14] -0.059

CLTB isoform 2 (UniProt P09497)
inactive: erlotinib 0.001 | [1] -0.005 | [2] 0.038 | [3] -0.016 | [4] 0.007 | [5] -0.006 | [6] 0.017 | [7] 0.017 | [8] -0.018 | IRAK-1-4 Inhibitor I 0.004 | [15] -0.016 | ralimetinib 0.011 | [9] -0.009 | [10] 0.01 | [11] -0.029 | [12] -0.013 | [13] 0.02 | [14] -0.023 | [16] -0.029

CHMP5 (UniProt Q9NZZ3)
inactive: erlotinib -0.033 | [1] -0.048 | [2] 0.006 | [3] 0.063 | [4] -0.027 | [5] 0.035 | [6] 0.054 | [7] 0.015 | [8] -0.018 | IRAK-1-4 Inhibitor I -0.024 | ibrutinib -0.045 | [15] 0.014 | ralimetinib -0.051 | [9] -0.017 | [10] -0.036 | [11] 0.008 | [12] 0.007 | [13] 0.034 | [14] -0.043 | [16] -0.023

CLTC (UniProt Q00610)
inactive: erlotinib 0.007 | [1] 0.069 | [2] -0.042 | [3] 0.024 | [4] 0.029 | [5] -0.008 | [6] -0.028 | [7] -0.019 | [8] 0.008 | IRAK-1-4 Inhibitor I -0.01 | [15] -0.008 | ralimetinib 0.013 | [9] -0.013 | [10] -0.008 | [11] -0.008 | [12] 0.015 | [13] 0.043 | [14] 0.015 | [16] 0.026

CLASP2 isoform 3 (UniProt O75122)
inactive: erlotinib 0.032 | [1] -0.014 | [2] -0.022 | [3] -0.032 | [4] -0.018 | [5] 0 | [6] -0.024 | [7] -0.024 | [8] 0.057 | IRAK-1-4 Inhibitor I -0.012 | [15] 0.004 | ralimetinib 0.019 | [9] -0.014 | [10] 0.025 | [11] 0.019 | [12] -0.008 | [13] 0.023 | [14] 0.042 | [16] 0.004

CLASRP (UniProt Q8N2M8)
inactive: erlotinib 0.004 | [1] -0.131 | [2] 0.021 | [3] 0.026 | [4] -0.069 | [5] -0.001 | [6] -0.008 | [7] 0.006 | [8] 0.04 | IRAK-1-4 Inhibitor I -0.05 | [15] 0.002 | ralimetinib 0 | [9] -0.096 | [10] -0.015 | [11] 0.031 | [12] -0.008 | [13] -0.036 | [14] 0.012 | [16] 0.01

CLUH (UniProt O75153)
inactive: erlotinib -0.011 | [1] 0.018 | [2] -0.006 | [3] 0.051 | [4] 0.21 | [5] -0.013 | [6] -0.014 | [7] -0.009 | [8] -0.005 | IRAK-1-4 Inhibitor I -0.007 | [15] 0.093 | ralimetinib 0.008 | [9] -0.004 | [10] -0.044 | [11] -0.01 | [12] 0 | [13] -0.001 | [14] 0.006 | [16] 0.008

CLPTM1 (UniProt O96005)
inactive: erlotinib -0.011 | [1] -0.028 | [2] -0.013 | [3] 0.023 | [4] -0.001 | [5] -0.027 | [6] -0.119 | [7] -0.012 | [8] 0.019 | IRAK-1-4 Inhibitor I 0.001 | [15] -0.042 | ralimetinib 0.005 | [9] 0.021 | [10] -0.038 | [11] -0.007 | [12] 0.034 | [13] 0.023 | [14] -0.021 | [16] -0.012

CLCN7 (UniProt P51798)
inactive: erlotinib -0.033 | [1] -0.037 | [2] 0.038 | [3] 0.069 | [4] -0.005 | [5] 0.017 | [6] -0.013 | [7] -0.063 | [8] -0.002 | IRAK-1-4 Inhibitor I -0.014 | [15] -0.035 | ralimetinib 0.017 | [9] -0.069 | [10] -0.029 | [11] -0.001 | [12] -0.023 | [13] 0.025 | [14] 0.019 | [16] -0.003

CLIC1 (UniProt O00299)
inactive: erlotinib 0.009 | [1] 0.011 | [2] 0.038 | [3] -0.008 | [4] -0.001 | [5] -0.026 | [6] 0.009 | [7] -0.001 | [8] 0 | IRAK-1-4 Inhibitor I 0.005 | [15] -0.004 | ralimetinib 0.006 | [9] -0.007 | [10] 0.008 | [11] -0.016 | [12] -0.006 | [13] 0.002 | [14] -0.025 | [16] 0.004

CLCC1 (UniProt Q96S66)
inactive: erlotinib -0.026 | [1] -0.042 | [2] -0.006 | [3] 0.004 | [4] -0.019 | [5] 0.003 | [6] -0.094 | [7] -0.003 | [8] -0.016 | IRAK-1-4 Inhibitor I -0.008 | [15] 0.007 | ralimetinib -0.012 | [9] 0.057 | [10] -0.013 | [11] -0.004 | [12] 0.01 | [13] -0.037 | [14] -0.03 | [16] -0.011

CHIC2 (UniProt Q9UKJ5)
inactive: erlotinib -0.098 | [1] 0.097 | [2] 0.065 | [3] -0.039 | [4] 0.039 | [5] 0.021 | [6] -0.009 | [7] 0.056 | [8] -0.035 | IRAK-1-4 Inhibitor I 0.067 | ibrutinib 0.001 | [15] -0.114 | ralimetinib -0.154 | [9] 0.183 | [10] -0.064 | [11] 0.157 | [12] 0.026 | [14] -0.066 | [16] 0.221

CHCHD6 (UniProt Q9BRQ6)
inactive: erlotinib -0.092 | [1] -0.156 | [2] -0.215 | [3] 0.094 | [4] -0.026 | [5] 0.04 | [6] -0.026 | [7] 0.075 | [8] 0.042 | IRAK-1-4 Inhibitor I -0.03 | ibrutinib 0.036 | [15] -0.05 | ralimetinib -0.068 | [9] -0.291 | [10] -0.049 | [12] -0.005 | [13] -0.001 | [14] 0.092 | [16] 0.194

CLSPN (UniProt Q9HAW4)
inactive: erlotinib -0.053 | [1] -0.01 | [2] -0.007 | [3] 0.024 | [4] 0.001 | [5] 0.027 | [6] 0.046 | [7] -0.041 | [8] 0.001 | IRAK-1-4 Inhibitor I 0.006 | [15] 0 | ralimetinib -0.006 | [9] 0.026 | [10] -0.029 | [11] 0.011 | [12] 0.001 | [13] 0.067 | [14] -0.02 | [16] 0.004

CHCHD10 (UniProt Q8WYQ3)
inactive: erlotinib -0.022 | [1] -0.043 | [2] -0.002 | [3] 0.053 | [4] -0.048 | [5] 0.035 | [6] 0.061 | [7] 0.045 | [8] -0.037 | IRAK-1-4 Inhibitor I 0.018 | ibrutinib -0.054 | [15] -0.005 | ralimetinib 0.103 | [9] -0.066 | [10] -0.014 | [11] 0.023 | [12] 0.015 | [14] 0.043 | [16] -0.017
